Experimental data: PubChem BioAssay AID1259308 (NCATS, 2017)
Shown is an unselected part of about 59,000 deposited reagents. Of all reagents, about 1,510 (2.6%) got an active call. 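Calls use total luciferase alone and ignore viability, so some active siRNAs may act by altering cell number.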 Unmarked entries are inactive. The numbers tell different reagents against one gene apart. No sequences are given here.

- Purpose: 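Genes whose loss raises luciferase production in HEK293 cells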 (primary screen)
- System: human HEK293 embryonic kidney cells stably expressing firefly luciferase (HEK-CMV-Luc2-Hygro)
- Reagents: single siRNA against human genes, 0.8 pmol siRNA per well
- Time to read-out: 72 h
- Measurement: 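Reporter luminescence and viable-cell signal on separate replicate plates, given as percent of non-targeting control and median/MAD z-scores, plus per-cell luciferase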
- Scale: total luciferase, z-score and total luciferase, % of control: higher = more reporter protein produced; luciferase per cell, z-score: higher = more reporter output per viable cell; viable cells, % of control: higher = more viable cells
- Rule for the call: 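Active when the median/MAD z-score for overall luciferase is greater than 3; a gene was taken forward for validation with new siRNAs if at least two of its three siRNAs passed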
- Calls: active = raised luciferase; inactive = no rise

gene knocked down	siRNA no.	total luciferase, z-score	total luciferase, % of control	luciferase per cell, z-score	viable cells, % of control
SV2A (GeneID 9900)	1	-0.17	78.5	-0.49	99.8
SV2A (GeneID 9900)	2	-0.451	72.9	-0.733	98.8
SV2A (GeneID 9900)	3	0.315	88.1	-0.573	115
PAPPA (GeneID 5069)	1	1.71	116	1.01	99.1
PAPPA (GeneID 5069)	2	0.551	92.8	0.313	95.5
PAPPA (GeneID 5069)	3	-0.222	77.5	0.654	72.9
IFIH1 (GeneID 64135)	1	1.25	107	0.757	97.7
IFIH1 (GeneID 64135)	2	-0.711	67.7	-0.319	82.3
IFIH1 (GeneID 64135)	3	-0.393	74.1	-0.477	93.8
SOX9 (GeneID 6662)	1	-0.946	63.1	-1.13	95
SOX9 (GeneID 6662)	2	-0.49	72.1	-0.946	103
SOX9 (GeneID 6662)	3	0.755	96.9	1.11	80.8
ABCB11 (GeneID 8647)	1	-0.727	67.4	-1.02	98.5
ABCB11 (GeneID 8647)	2	-0.193	78	-0.801	108
ABCB11 (GeneID 8647)	3	-0.123	79.4	-0.373	97.9
OTOA (GeneID 146183)	1	0.395	89.7	2.78	48.2
OTOA (GeneID 146183)	2	1.41	110	1.13	91.3
OTOA (GeneID 146183)	3	0.0764	83.4	-0.506	106
TP53I3 (GeneID 9540)	1	1.57	113	1.9	76.7
TP53I3 (GeneID 9540)	2	0.348	88.8	0.135	95.8
TP53I3 (GeneID 9540)	3	-0.403	73.9	-0.23	87.7
PASD1 (GeneID 139135)	1	1.28	107	0.739	98.8
PASD1 (GeneID 139135)	2	0.0694	83.3	-0.25	99.4
PASD1 (GeneID 139135)	3	0.222	86.3	-0.742	117
RFC5 (GeneID 5985)	1	0.0415	82.7	-0.143	96
RFC5 (GeneID 5985)	2	-1.04	61.2	-0.862	85.9
RFC5 (GeneID 5985)	3	-0.58	70.4	-0.0904	80.5
GJB4 (GeneID 127534)	1	-0.65	69	-0.502	87.9
GJB4 (GeneID 127534)	2	-0.453	72.9	-0.279	87.6
GJB4 (GeneID 127534)	3	0.714	96.1	2.09	61.9
SVOP (GeneID 55530)	1	-0.0139	81.6	-0.146	94.8
SVOP (GeneID 55530)	2	-0.906	63.9	0.186	68
SVOP (GeneID 55530)	3	-0.525	71.5	-0.447	89.8
ZC3H11A (GeneID 9877)	1	-0.492	72.1	-0.404	89.6
ZC3H11A (GeneID 9877)	2	0.176	85.4	-0.345	105
ZC3H11A (GeneID 9877)	3	1.47	111	2.45	65.2
CIART (GeneID 148523)	1	4.04 (active)	162	2.49	94
CIART (GeneID 148523)	2	-0.114	79.6	-0.199	93.8
CIART (GeneID 148523)	3	-0.277	76.4	0.348	77.9
TXN (GeneID 7295)	1	-1.12	59.6	0.548	57.7
TXN (GeneID 7295)	2	-2.54	31.3	-2.97	76.5
TXN (GeneID 7295)	3	0.186	85.6	-0.15	99.5
SKA3 (GeneID 221150)	1	-1.17	58.5	1.07	49.4
SKA3 (GeneID 221150)	2	-0.902	64	-0.335	78
SKA3 (GeneID 221150)	3	1.69	115	1.99	76.3

Called active, among the entries above:
gene knocked down	siRNA no.	total luciferase, z-score	total luciferase, % of control	luciferase per cell, z-score	viable cells, % of control
CIART (GeneID 148523)	1	4.04 (active)	162	2.49	94

Next entries follow.
gene knocked down	siRNA no.	total luciferase, z-score	total luciferase, % of control	luciferase per cell, z-score	viable cells, % of control
ACSM2B (GeneID 348158)	1	-0.622	69.5	-0.736	94.3
ACSM2B (GeneID 348158)	2	0.679	95.4	1.12	79.4
ACSM2B (GeneID 348158)	3	0.18	85.5	0.482	84.1
ARFGAP2 (GeneID 84364)	1	0.116	84.2	-0.681	113
ARFGAP2 (GeneID 84364)	2	-2.03	41.6	-2.23	83.5
ARFGAP2 (GeneID 84364)	3	-0.797	66	-0.403	82.1
TMEM47 (GeneID 83604)	1	2.47	131	2.69	72
TMEM47 (GeneID 83604)	2	-1.68	48.4	-2.13	94.8
TMEM47 (GeneID 83604)	3	-0.771	66.5	1.07	56.1
CNNM2 (GeneID 54805)	1	-0.803	65.9	-0.393	81.7
CNNM2 (GeneID 54805)	2	0.262	87.1	-0.0719	99.2
CNNM2 (GeneID 54805)	3	-0.34	75.1	-0.454	94.6
NCAPD3 (GeneID 23310)	1	-0.0232	81.4	0.0584	89.6
NCAPD3 (GeneID 23310)	2	-0.911	63.8	-0.0608	72.4
NCAPD3 (GeneID 23310)	3	0.0547	83	0.521	80.8
TM4SF18 (GeneID 116441)	1	2.23	126	1.4	97.6
TM4SF18 (GeneID 116441)	2	-0.371	74.5	-0.614	97.9
TM4SF18 (GeneID 116441)	3	0.0954	83.8	1.04	71.3
OR51B6 (GeneID 390058)	1	2.02	122	1.49	92.1
OR51B6 (GeneID 390058)	2	3.48 (active)	151	3.52	66.9
OR51B6 (GeneID 390058)	3	0.7	95.8	0.289	99.2
MPO (GeneID 4353)	1	0.19	85.7	0.0881	93.5
MPO (GeneID 4353)	2	0.397	89.8	0.3	92.7
MPO (GeneID 4353)	3	0.477	91.4	-0.313	111
GJB3 (GeneID 2707)	1	0.74	96.6	0.406	97
GJB3 (GeneID 2707)	2	1.32	108	0.652	102
GJB3 (GeneID 2707)	3	-0.754	66.9	0.519	65.2
PVRIG (GeneID 79037)	1	-0.468	72.6	0.0327	80.4
PVRIG (GeneID 79037)	2	1.48	111	1.04	94.7
PVRIG (GeneID 79037)	3	1	102	1.49	77
